Data as given in PubChem BioAssay AID720505 (Drosophila RNAi Screening Center, 2013)
Assay: 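Genes needed for store-operated calcium entry in fly cells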 (primary screen). Cell system: Drosophila S2R+ cells. Knock-down reagent: long dsRNA against Drosophila genes. Challenge: thapsigargin (2 µM) in calcium-free buffer to empty internal stores, then 2 mM calcium added back. Detection: 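Stores emptied by 2 µM thapsigargin without calcium, then 2 mM calcium re-added; fluo-4 fluorescence followed by FLIPR in 384-well plates, per-well averaged endpoint, raw; two screen passes, some wells retested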. Direction: calcium signal and retest calcium signal: higher = more calcium entry after store depletion. Hit rule: 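About 1500 genes called as lowering calcium entry, by varying amounts, judged against per-plate control wells with STIM1 as positive and Rho1 as negative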. Meaning of the calls: active = called as lowering calcium entry; inactive = not called.
In all, the deposit lists about 20,000 reagents; this is a random part of those with a known target gene and a result. Over the whole deposit, about 2,100 (10%) got an active call. 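Raw plate signals without normalisation; calls rest on control-based scores that were not deposited; replicate 2 separates called from uncalled poorly.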 A plus sign joins genes that one reagent is predicted to hit. The record does not give: the amount of reagent, the time to read-out.

no.	gene	DRSC id	calcium signal, replicate 1	calcium signal, replicate 2	retest calcium signal, replicate 1	retest calcium signal, replicate 2	call
1	CG16898	DRSC06635	173	130			inactive
2	CG14624	DRSC18634	154	108			inactive
3	bru3	DRSC09280	9219	146			inactive
4	bru3	DRSC09292					active
5	bru3	DRSC09687	88.4	100			inactive
6	bru3	DRSC09887	108	82.6			inactive
7	bru3	DRSC22732	182	206			inactive
8	Pgm2b	DRSC05978	166	124			inactive
9	tw	DRSC18537	149	110			inactive
10	mor	DRSC15378	116	109			inactive
11	CG2772	DRSC00530	189	90.4			inactive
12	Lgr4	DRSC18970					active
13	Lgr4	DRSC19884	109	92.3			inactive
14	EMC2B + EMC2A	DRSC15241	166	200			inactive
15	CG17375	DRSC02614	146	109			inactive
16	CG12111	DRSC17808	254	117			inactive
17	skd	DRSC11898	71.8	75			active
18	PolZ2	DRSC12325	189	150			inactive
19	CG10165	DRSC02017	86.4	164			inactive
20	Ir7c	DRSC18007	59.2	299			active
21	CG12105	DRSC08255	147	131			inactive
22	sov	DRSC17930	183	142			inactive
23	Eaf6	DRSC09901	108	78.9			inactive
24	Cyp6d5	DRSC16634	109	128			inactive
25	hpo	DRSC06065	143	113			inactive
26	sbm	DRSC20185	100	129			inactive
27	Cpr56F	DRSC07326	127	142			inactive
28	CG12917	DRSC06231	84.2	130			inactive
29	LManIII	DRSC03221	96.6	111			inactive
30	CG3008	DRSC00560	139	85.1			inactive
31	CG34283	DRSC13313	93.7	105			inactive
32	VGAT	DRSC07160	96.9	168			inactive
33	CG4752	DRSC04486	68.9	115			inactive
34	Cyp28c1	DRSC20236	124	104			inactive
35	beat-VII	DRSC13780					active
36	beat-VII	DRSC14743	104	129			inactive
37	beat-VII	DRSC14744	96.9	120			inactive
38	beat-VII	DRSC22825	112	81.1			inactive
39	hoe1	DRSC00265	83.3	168			inactive
40	hoe1	DRSC00333	168	98.1			inactive
41	hoe1	DRSC00353	160	99.1			inactive
42	Itpr	DRSC12354	132	128			inactive
43	Rpn3	DRSC03318	64.8	92.3			active
44	CG5934	DRSC15922	157	144			inactive
45	bsk	DRSC03499	101	101			inactive
46	a10	DRSC11319	82.4	166			inactive
47	Ctr1C	DRSC15089	175	120			inactive
48	CG3699	DRSC18171	101	166			inactive
49	CG3699	DRSC18642	122	135			inactive
50	shams	DRSC16590	206	108			inactive
51	CG11600	DRSC14332	144	88.9			inactive
52	CG4041	DRSC18339	150	95.1			inactive
53	Mmp2	DRSC06698	105	134			inactive
54	Mmp2	DRSC22024	66.3	217			inactive
55	Clic	DRSC19364	96	77.5			inactive
56	CG12608	DRSC19472	119	95.7			inactive
57	CG14427	DRSC17921	218	103			inactive
58	CG17816	DRSC15277	95.7	194	8305	135	inactive
59	CG34382	DRSC08999					inactive
60	CG34382	DRSC10166	111	80.3			inactive
61	CG34382	DRSC10167	101	77.8			inactive
62	CG14143	DRSC10146	91.7	112			inactive
63	nrv1	DRSC03382	98.2	150			inactive
64	Cyp4e1	DRSC07370	151	111			inactive
65	CG4115	DRSC15545	137	119			inactive
66	EcR	DRSC04906	119	191			inactive
67	EcR	DRSC04910	149	97.7			inactive
68	Sec61beta	DRSC07548	96.6	201	110	97.9	inactive
69	Sec61beta	DRSC21512	175	138			inactive
70	mei-217 + mei-218	DRSC20349	110	163			inactive
71	p	DRSC16560	135	154			inactive
72	wge	DRSC15246	203	276			inactive
73	wge	DRSC15672	136	110			inactive
74	EndoA	DRSC14775	104	204			inactive
75	CG33981 + fab1	DRSC07412	155	113			inactive
76	Muc91C	DRSC16297	177	163			inactive
77	Muc91C	DRSC21696	48.2	96.2			active
78	CG31464	DRSC14345	90.7	169			inactive
79	Rab9	DRSC03281	139	118			inactive
80	CG42337	DRSC11686	116	130			inactive
81	CG42337	DRSC11687	81.5	86.4			inactive
82	CG42337	DRSC23099	99.5	122			inactive
83	CG7632	DRSC11842	65.3	136			active

In a second layout: 9 of the entries above
sbm [DRSC20185] → calcium signal, replicate 1: 100; calcium signal, replicate 2: 129; call: inactive
Cpr56F [DRSC07326] → calcium signal, replicate 1: 127; calcium signal, replicate 2: 142; call: inactive
CG12917 [DRSC06231] → calcium signal, replicate 1: 84.2; calcium signal, replicate 2: 130; call: inactive
LManIII [DRSC03221] → calcium signal, replicate 1: 96.6; calcium signal, replicate 2: 111; call: inactive
CG3008 [DRSC00560] → calcium signal, replicate 1: 139; calcium signal, replicate 2: 85.1; call: inactive
CG34283 [DRSC13313] → calcium signal, replicate 1: 93.7; calcium signal, replicate 2: 105; call: inactive
VGAT [DRSC07160] → calcium signal, replicate 1: 96.9; calcium signal, replicate 2: 168; call: inactive
CG4752 [DRSC04486] → calcium signal, replicate 1: 68.9; calcium signal, replicate 2: 115; call: inactive
Cyp28c1 [DRSC20236] → calcium signal, replicate 1: 124; calcium signal, replicate 2: 104; call: inactive
